PubChem BioAssay AID504850 (National Center for Advancing Translational Sciences (NCATS), 2011)
Among all 2,300 compounds or so, about 1,200 (52%) were called active. So high a share suggests a set chosen from earlier hits. The inconclusive results got no clear call from the source; some entries with a clear call stand among them for comparison. The call rests on the fitted dose curve; in most records, active means well fitted inhibition curve with a large enough effect; inconclusive means small, poorly fitted or top-dose-only effect, or effect the other way; inactive means no such curve, though single readings can be large or run the other way. Potencies beside an inconclusive call are fits to weak or partial responses and may not hold up.
On the % scale 0 is the no-effect control and ±100 the full control effect; potency means the concentration at half of the fitted maximal effect.

Assay: Confirmation screen for delayed death inhibitors of the malarial parasite plastid, 48 hour incubation; further: nearly all actives have a fitted effect of over 65% in size
Details: P. falciparum-infected erythrocytes, luciferase growth; series mostly up to 28.7 µM; activity change, negative = inhibition: at the top concentration
In short: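 Erythrocytes infected with luciferase-expressing P. falciparum (2% hematocrit, 0.1% parasitemia) incubated with compounds 48 hours at 37 C, 5% CO2, in RPMI/Albumax. Growth inhibition scored as reduced luminescence after detection reagent.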
With O=C(CC(SCCO)c1ccc2c(c1)OCO2)c1cccs1 (centres undefined) the Potency was inconclusive: 4.47 µM [activator, partial curve].
For CCN(CC(=O)Nc1c(F)cccc1F)C(=O)c1ccc(S(=O)(=O)NCc2ccco2)cc1, the “activity change, negative = inhibition” value was inactive: -12.2%.
In the case of Cc1onc(-c2ccccc2)c1C(=O)Nc1nc(-c2ccccc2)cs1, the Potency is reported as inconclusive: 17.8 µM [inhibitor, single point].
With CCN(CC)c1ccc2c(C)c(-c3ccc(N)cc3)c(=O)oc2c1 the Potency was inconclusive: 14.1 µM [inhibitor, single point].
With O=C(/C=C/c1ccccc1)Nc1sc2c(c1C(=O)O)CCC2 the “activity change, negative = inhibition” value was inactive: -6.98%.
For CC1(CCc2ccc3c(c2)OCO3)NCCc2c1[nH]c1ccccc21 (centres undefined), the Potency was active: 8.91 µM.
For C/C=C(\CS(=O)(=O)c1ccccc1)S(=O)(=O)c1ccccc1, the Potency was inconclusive: 12.6 µM [inhibitor, single point].
In the case of Cc1cccc(NC(=S)/N=C(\N)Nc2nc(C)c3ccccc3n2)c1, the Potency is reported as active: 12.6 µM.
For C[C@@H]1[C@H](O)C[C@@]23COC(=O)C2=CCCC3[C@@]1(C)CCC1COC(=O)C1 (some centres undefined), the “activity change, negative = inhibition” value was inactive: -24.3%.
In the case of COc1ccc(N2CCN(CCCn3c(=S)[nH]c4ccccc4c3=O)CC2)cc1, the Potency is reported as inconclusive: 15.8 µM [inhibitor, single point].
In the case of Cc1ccc(C2C3=C(CC(C)(C)CC3=O)N=C3c4ccccc4C(=O)C32)cc1 (centres undefined), the Potency is reported as active: 8.91 µM.
In the case of Cc1ccc2c(CN(C)Cc3cccc(Cl)c3)cc(=O)oc2c1C, the “activity change, negative = inhibition” value is reported as inactive: -20.7%.
In the case of Cc1cc(/C=N/NC(=O)c2cccs2)c(C)n1-c1ccccc1, the Potency is reported as inconclusive: 7.94 µM [inhibitor, partial curve, poor fit].
In the case of CCOC(=O)C(=Cc1ccccc1OC)C(=O)OCC, the Potency is reported as inconclusive: 15.8 µM [inhibitor, single point].
For NC(=O)CC(NC(=O)c1ccc(Br)cc1)c1ccc(N2CCCCCCC2)c([N+](=O)[O-])c1 (centres undefined), the Potency was inconclusive: 14.1 µM [inhibitor, single point].
In the case of C(=N\N(c1ccccc1)c1ccccc1)/c1ccccn1, the “activity change, negative = inhibition” value is reported as inactive: -14.6%.
With O=C(O)CCc1ccc(-c2ccccc2)n1-c1ccc(C(=O)O)cc1 the “activity change, negative = inhibition” value was inactive: 1.49%.
In the case of Cc1ccc(S/C=C\C(=O)c2ccccc2)cc1, the Potency is reported as inconclusive: 1.26 µM [activator, full curve].
In the case of Cc1c(C(=O)C(=O)N2CCCc3ccccc32)c2ccccc2n1C, the Potency is reported as inconclusive: 15.8 µM [inhibitor, partial curve, poor fit].
For Cc1ccc(-c2cc(C(=O)N/N=C/C=C/c3ccco3)c3ccccc3n2)cc1C, the Potency was active: 10 µM.
With O=C(NCc1cccnc1)c1ccc(Cl)c(S(=O)(=O)N2CCOCC2)c1 the Potency was inconclusive: 14.1 µM [inhibitor, partial curve].
For COC1C(OC(=O)/C=C/C=C/C=C/C=C/C(=O)O)CCC2(CO2)C1C1(C)OC1CC=C(C)C (centres undefined), the Potency was active: 0.0562 µM.
With O=C(CSc1ccc(-c2cccnc2)nn1)Nc1ccccc1C(F)(F)F the “activity change, negative = inhibition” value was inactive: -11.1%.
In the case of Cc1ccc[n+](CC(=O)Nc2ccc(N(C)C)cc2)c1, the “activity change, negative = inhibition” value is reported as inactive: -11.7%.
For CCC(=O)Nc1cccc(C(=O)/C=C/c2ccccc2)c1, the Potency was inconclusive: 15.8 µM [inhibitor, single point].
For COc1cc(/C=N/NC(=S)Nc2cccc(S(=O)(=O)N(C)C)c2)cc(OC)c1O, the “activity change, negative = inhibition” value was inactive: -5.26%.
For CCCCN1CC(=O)N2[C@H]3c4ccc(OC)cc4OC[C@@H]3[C@H](C(=O)OCC)[C@]2(C)C1=O, the Potency was inconclusive: 12.6 µM [inhibitor, partial curve, poor fit].
For COc1cc(Cn2nnc3ccccc32)ccc1O, the Potency was active: 12.6 µM.
In the case of CC(=O)Oc1ccc(-c2csc(Nc3cccnc3)n2)cc1, the “activity change, negative = inhibition” value is reported as inactive: 11%.
For CCOC(=O)c1cnc2ccccc2c1NCCc1ccc(OC)c(OC)c1, the Potency was active: 11.2 µM.
With COc1cc(CN2CCN(Cc3c[nH]c4ccccc34)CC2CCO)cc(OC)c1 (centres undefined) the Potency was inconclusive: 15.8 µM [inhibitor, single point].
In the case of CCCCCCC1C(C#N)=C(N)OC2=C1C(=O)CCC2 (centres undefined), the “activity change, negative = inhibition” value is reported as inactive: -17.8%.
For O=C(Nc1nnc(SCC(=O)N2CCCC2)s1)C1CC(=O)N(c2ccc(F)cc2)C1 (centres undefined), the Potency was active: 11.2 µM.
For Cc1ccccc1-n1nc2c(c1NC(=O)C1CCCC1)CS(=O)(=O)C2, the “activity change, negative = inhibition” value was inactive: -20.1%.
With COC(=O)[C@]1(C)CCC[C@@]2(C)C3CC[C@]4(OC(C)=O)C[C@@]3(CCC21)CC4=NO (some centres undefined) the Potency was inconclusive: 11.2 µM [inhibitor, partial curve, poor fit].
With CC(=O)c1ccccc1NS(=O)(=O)c1ccc2c(c1)CC(=O)N2 the Potency was inconclusive: 14.1 µM [inhibitor, single point].
In the case of Cc1cccc(NC(=O)COC(=O)c2cccc3c2C(=O)c2ccccc2C3=O)c1C, the Potency is reported as active: 15.8 µM.
With O=C(NC(Cc1c[nH]c2ccccc12)C(=O)Nc1ccc(OC(F)(F)F)cc1)c1cccs1 (centres undefined) the Potency was inconclusive: 15.8 µM [inhibitor, single point].
With Cc1cccc(CS(=O)(=O)c2ncc(Cl)c(C(=O)Nc3c(C)cccc3C)n2)c1 the Potency was inconclusive: 10 µM [inhibitor, partial curve, poor fit].
With C=CCN(c1nc(C)c(Br)c(OC)n1)S(=O)(=O)c1ccc(C)cc1 the Potency was inconclusive: 14.1 µM [inhibitor, partial curve, poor fit].
For COc1ccccc1NS(=O)(=O)c1ccc(NN=C2CCCC2)c([N+](=O)[O-])c1, the Potency was inconclusive: 14.1 µM [inhibitor, partial curve].
In the case of O=C(N1CCOCC1)N1c2ccccc2Sc2ccccc21, the “activity change, negative = inhibition” value is reported as inactive: -18.4%.
For CC(C)Nc1nc2ccccc2c(=O)[nH]1, the Potency was inconclusive: 14.1 µM [inhibitor, partial curve].
For CC(=O)/C(=N\Nc1ccc(Cl)cc1)Sc1nnc(-c2ccccc2)n1-c1ccccc1, the Potency was inconclusive: 5.62 µM [inhibitor, partial curve].
For CC(=O)c1cccc(Oc2cc(NN3CCCCC3)c([N+](=O)[O-])cc2[N+](=O)[O-])c1, the Potency was inconclusive: 11.2 µM [inhibitor, partial curve, poor fit].
With COCCn1c(SC(C)C(=O)Nc2ncc(Cl)cc2Cl)nc2ccccc21 (centres undefined) the Potency was inconclusive: 15.8 µM [inhibitor, single point].
With COc1cc2c(cc1OC)CN(C(=O)COc1ccccc1[N+](=O)[O-])CC2 the Potency was inconclusive: 14.1 µM [inhibitor, single point].
With O=C(CCN1C(=O)/C(=C/c2ccccc2)SC1=S)N[C@@H](CO)Cc1ccccc1 the Potency was inconclusive: 17.8 µM [inhibitor, single point].
With Cc1ccc(NS(=O)(=O)c2ccc(-c3cnc(C4CC4)o3)cc2)c(C)c1 the Potency was active: 5.01 µM.
In the case of CC(=O)c1ccc(S(=O)(=O)N(C)CCCC(=O)NCc2ccc3c(c2)OCO3)cc1, the Potency is reported as inconclusive: 14.1 µM [inhibitor, single point].
With CCc1ccc(C(=O)NNc2ccc(C)c(Cl)c2)cc1 the Potency was inconclusive: 17.8 µM [inhibitor, single point].
In the case of CCOc1ccc(-c2cc(C(=O)O)c3ccccc3n2)c(OCC)c1, the “activity change, negative = inhibition” value is reported as inactive: -18.3%.
With CC(C)c1ccc(C(=O)Nc2nnc(S(=O)(=O)N3CCOCC3)s2)cc1 the Potency was inconclusive: 14.1 µM [inhibitor, partial curve].
In the case of Cc1ccccc1NC(=O)Cc1nc(COC(=O)c2cccc([N+](=O)[O-])c2)cs1, the Potency is reported as inconclusive: 10 µM [inhibitor, partial curve, poor fit].
In the case of COCCNC(=O)CCCCCN1C(=O)CCC1=O, the “activity change, negative = inhibition” value is reported as inactive: -8.65%.
For CCOc1ccc(C(=O)Nc2ccc(N3CCN(C)CC3)cc2)cc1, the Potency was inconclusive: 11.2 µM [inhibitor, partial curve].
With COc1ccc(Cl)cc1NC(=O)c1noc(C)c1[N+](=O)[O-] the Potency was inconclusive: 15.8 µM [inhibitor, single point].
With Cc1c(CN2CCC(CO)(CCOc3ccccc3)CC2)[nH]c2ccc(Cl)cc12 the Potency was active: 7.08 µM.
In the case of CCCSc1nc2c(cnn2-c2ccccc2)c(=O)[nH]1, the “activity change, negative = inhibition” value is reported as inactive: 13.4%.
In the case of CC(C)(C)OC(=O)[C@H](Cc1ccccc1)NC(=O)c1nc[nH]c1C(=O)N1CCN(C(=O)OC(C)(C)C)CC1, the Potency is reported as active: 12.6 µM.
For CCCC1O[C@@H]2CC3C4CCC5=CC(=O)C=C[C@]5(C)C4C(OC(C)=O)C[C@]3(C)[C@]2(C(=O)COC(C)=O)O1 (some centres undefined), the Potency was active: 7.08 µM.
With O=C(CN1CCc2ccccc2C1)Nc1ccccc1Cl the Potency was inconclusive: 15.8 µM [inhibitor, single point].
In the case of CC[C@@H](C)C(NC(=O)OC(C)(C)C)c1cn([C@@H](CCCCNC(=O)OC(C)(C)C)C(=O)N2CCN(C(=O)OC(C)(C)C)CC2)nn1 (some centres undefined), the Potency is reported as active: 2 µM.
For Cc1cccc(NCc2cccc3ccccc23)n1, the Potency was inconclusive: 15.8 µM [inhibitor, single point].
For O=C(NCC1CCCO1)c1ccc(Cn2c(=S)[nH]c3ccccc3c2=O)cc1 (centres undefined), the Potency was inconclusive: 17.8 µM [inhibitor, partial curve, poor fit].
For Cc1ccc(N2C(=O)N3[C@H](c4ccc(F)cc4)[C@@H]4C(=O)N(C5CCCCC5)C(=O)[C@@H]4[C@]3(Cc3ccccc3)C2=O)cc1, the Potency was active: 5.62 µM.
In the case of O=C(CCS(=O)(=O)c1ccccc1)N(CCCN1CCOCC1)c1nc2c(F)cccc2s1, the Potency is reported as inconclusive: 7.08 µM [activator, full curve].
In the case of c1ccn2cc(C34CC5CC(CC(C5)C3)C4)nc2c1, the Potency is reported as inconclusive: 12.6 µM [inhibitor, single point].
With CCOC(=O)COc1ccc(Br)cc1/C=C/c1[nH]c(=O)[nH]c(=O)c1[N+](=O)[O-] the Potency was inconclusive: 22.4 µM [inhibitor, single point].
